Measured values taken from PubChem BioAssay AID504467 (National Center for Advancing Translational Sciences (NCATS), 2011).
About 7,700 (2.3%) of roughly 330,000 compounds were called active. Inconclusive means that the source gave no clear call. Such entries were picked first, then a sample of the others. Calls come from the whole dose curve; as a rule, active = well fitted inhibition curve with a large enough effect; inconclusive = small, poorly fitted or top-dose-only effect, or effect the other way; inactive = flat fitted curve, though single readings scatter. Potencies of inconclusive entries are doubtful fits and often do not repeat.

Assay: qHTS screen for small molecules that inhibit ELG1-dependent DNA repair in human embryonic kidney (HEK293T) cells expressing luciferase-tagged ELG1; note: nearly all actives have a fitted effect of over 55% in size
Conditions: HEK293T ELG1-luciferase reporter, luminescence, 16 h, DNA damage induced by 5-fluorouridine; series mostly up to 46.1 µM
In short: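 5-Fluorouridine DNA damage + compound/DMSO, 2,000 cells/well, 16 h, 37 °C/5% CO2. ONE-Glo, 30 min RT, luminescence. Readout = decrease in reporter signal.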
Potency is the fitted concentration of half-maximal effect.

Which Potency does the source give for `COc1ccc(-c2nnc(N(C)C(=O)c3cccnc3)s2)cc1` here?
Its Potency is inconclusive: 11.6 µM [activator, partial curve].

Which Potency does the source give for `CCOC(=O)C1CCN(C(=O)Cn2nc(C)n3nc(-c4ccc(CC)cc4)cc3c2=O)CC1` here?
The Potency was “inactive”.

With `CCc1ccc2c(c1)C(c1ccc([N+](=O)[O-])cc1)=NNC(c1ccc(Br)cc1)=N2` as the molecule, how does the Potency read?
Its Potency is “inactive”.

Which Potency does the source give for `CN=C1c2cc3cc(OC)ccc3n2CCN1C` here?
The Potency was inconclusive: 14.6 µM [activator, partial curve, poor fit].

Which Potency does the source give for `CC(=O)N1CCN(c2ccccc2NC(=O)COc2ccc(Cl)cc2Cl)CC1` here?
The Potency was inconclusive: 20.6 µM [inhibitor, single point].

Which Potency does the source give for `Cc1nc(-c2nc(-c3c(C(=O)NN)noc3C)cs2)cs1` here?
The Potency was inconclusive: 20.6 µM [activator, partial curve].

For `CCCCCCNc1nc(NCc2ccco2)nc(OCC)n1`, which Potency is on record?
The Potency was inconclusive: 29.1 µM [inhibitor, single point].

Which Potency does the source give for `CCCCn1cnc2c([nH]c3ccccc32)c1=O` here?
Its Potency is inconclusive: 20.6 µM [activator, partial curve].

For `Cc1cc(NC(=O)C2CCCN(S(=O)(=O)c3cnc[nH]3)C2)ccc1Br` (stereo not given), which Potency is on record?
Its Potency is inconclusive: 20.6 µM [inhibitor, partial curve].

With `COc1cc(O)c(C(CC(=O)N2CCN(c3ccccc3)CC2)c2cc(OC)c(OC)c(OC)c2)c(OC)c1` (stereo not given) as the molecule, how does the Potency read?
The Potency was “inactive”.

Which Potency does the source give for `C=CCOc1ccc(CNn2cn[nH]c2=S)cc1OC` here?
The Potency was “inactive”.

For `C/C(=N\Nc1ccc([N+](=O)[O-])cc1)c1ccco1`, which Potency is on record?
Its Potency is inconclusive: 18.4 µM [activator, partial curve].

For `C/C(=N/N=C1\SCC(=O)N1c1ccccc1)c1ccc(C)cc1`, which Potency is on record?
The Potency was “inactive”.

For `Cc1cc(C)n(CCC(=O)N2CCCC(N3CCN(c4cccc(Cl)c4)CC3)C2)n1` (stereo not given), which Potency is on record?
The Potency was “inactive”.

For `COc1cc(NC(=O)c2cc(C3CC3)on2)c(OC)cc1Cl`, which Potency is on record?
Its Potency is inconclusive: 29.1 µM [inhibitor, partial curve, poor fit].

Which Potency does the source give for `CCCCNS(=O)(=O)c1ccc2nc(SCC(=O)Nc3ccccc3)[nH]c2c1` here?
The Potency was inconclusive: 9.2 µM [inhibitor, partial curve, poor fit].

With `CC(OC(=O)c1cccc(-n2cnnn2)c1)C(=O)NCc1ccccc1` (stereo not given) as the molecule, how does the Potency read?
Its Potency is “inactive”.

With `COC(=O)NC1(C(F)(F)F)C(=O)Nc2c1c(=O)n(C)c(=O)n2C` (stereo not given) as the molecule, how does the Potency read?
Its Potency is “inactive”.

For `CCN(CC)CCOc1cc2c(nn1)Oc1ccccc1N2C`, which Potency is on record?
Its Potency is inconclusive: 16.4 µM [activator, single point].

With `Clc1ccccc1OCCN1CCC(Cc2ccccc2)CC1` as the molecule, how does the Potency read?
The Potency was “inactive”.

Which Potency does the source give for `O=S(=O)(c1ccccc1)N1CCN=C1SCc1ccc(Cl)cc1` here?
Its Potency is inconclusive: 16.4 µM [inhibitor, single point].

Which Potency does the source give for `Cc1ccc(NC(=O)CSc2ncccn2)cc1S(=O)(=O)N1CCCCC1` here?
Its Potency is “inactive”.

For `Cc1ccc(C)c(N2CCN(Cc3nnnn3C3CCCCC3)CC2)c1`, which Potency is on record?
The Potency was inconclusive: 29.1 µM [inhibitor, partial curve, poor fit].

Which Potency does the source give for `CCOC(=O)c1cnc(N2CCN(c3ccccc3)CC2)[nH]c1=O` here?
The Potency was “inactive”.

Which Potency does the source give for `C=CCn1c(SCc2ccccc2C#N)nnc1-c1cc(Br)ccc1O` here?
Its Potency is inconclusive: 29.1 µM [inhibitor, single point].

With `CN(C)c1ccc(-n2cc3c(=O)n(C)c(=O)n(C)c3c2)cc1` as the molecule, how does the Potency read?
The Potency was inconclusive: 14.6 µM [activator, partial curve].

Which Potency does the source give for `CCCCNC(=O)C1CC(c2ccc(C(F)(F)F)cc2)=NO1` (stereo not given) here?
The Potency was “inactive”.

Which Potency does the source give for `C=CCOC(=O)c1[nH]c2c(c1C)C(=O)CC(c1cc(OC)c(OC)c(OC)c1)C2` (stereo not given) here?
Its Potency is inconclusive: 8.2 µM [inhibitor, partial curve].

Which Potency does the source give for `Cc1ccccc1NC(=S)NCc1ccccc1` here?
The Potency was “inactive”.

Which Potency does the source give for `CN(C)S(=O)(=O)c1cccc(NC(=S)N/N=C/c2cccc(O)c2)c1` here?
The Potency was inconclusive: 29.1 µM [inhibitor, single point].

With `Cn1c(N)c(C(=O)COC(=O)c2ccccc2C(=O)c2ccc(Cl)c([N+](=O)[O-])c2)c(=O)n(C)c1=O` as the molecule, how does the Potency read?
Its Potency is inconclusive: 25.9 µM [inhibitor, single point].

Which Potency does the source give for `Cc1ccc(NC(=O)Nc2c(Cl)cccc2Cl)cn1` here?
The Potency was inconclusive: 29.1 µM [inhibitor, single point].

For `Cc1cc2nc(N3CCN(C(=O)c4cccs4)CC3)sc2cc1C`, which Potency is on record?
Its Potency is inconclusive: 5.8 µM [activator, full curve].

Which Potency does the source give for `CCOc1ccc(N(Cc2cc3ccc(C)cc3[nH]c2=O)S(=O)(=O)c2ccccc2)cc1` here?
Its Potency is inconclusive: 16.4 µM [inhibitor, single point].

For `CNC(=O)COC(=O)c1ccc2c(c1)NC(=O)C1CCCN21` (stereo not given), which Potency is on record?
The Potency was “inactive”.

Which Potency does the source give for `O=C(c1ccc(F)cc1)c1cc2ccc(O)cc2oc1=O` here?
Its Potency is inconclusive: 16.4 µM [activator, partial curve].

Which Potency does the source give for `COC(=O)c1ccc(C(c2c(C)n(C)n(-c3ccccc3)c2=O)c2c(C)n(C)n(-c3ccccc3)c2=O)cc1` here?
The Potency was inconclusive: 10 µM [inhibitor, partial curve].

Which Potency does the source give for `CC(=O)Nc1nc2ccc(C(=O)NCCOC(=O)C3CCCCC3)cc2s1` here?
The Potency was inconclusive: 18.3 µM [activator, partial curve, poor fit].

For `COCCn1c(C)cc(/C=N/NC(=O)c2cc3ccccc3cc2O)c1C`, which Potency is on record?
The Potency was “inactive”.

For `CCC(O)CNc1nc(-n2nc(C)cc2C)nc2sc3c(c12)CCCC3` (stereo not given), which Potency is on record?
The Potency was “inactive”.

Which Potency does the source give for `COc1cc(CCN2C(=O)c3cccc4cccc(c34)C2=O)c(S(=O)(=O)N2CCC(C)CC2)cc1OC` here?
The Potency was active: 20.6 µM.

For `CC(C)CCOP(=O)(c1ccc(N(C)C)cc1)C(O)c1ccccc1F` (stereo not given), which Potency is on record?
Its Potency is inconclusive: 2.91 µM [activator, single point].

Which Potency does the source give for `O=C(Nc1nnc(SCc2ccccn2)s1)C1CC(=O)N(c2ccccc2)C1` (stereo not given) here?
Its Potency is “inactive”.

Which Potency does the source give for `Cc1ccccc1CC(=O)Nc1sc(C(C)C)cc1C(=O)N1CCOCC1` here?
Its Potency is “inactive”.

For `O=C(Cc1ccccc1)NCC(=O)N1CCCCCC1`, which Potency is on record?
The Potency was inconclusive: 29.1 µM [activator, partial curve, poor fit].

Which Potency does the source give for `CCn1c(=O)n(CC)c2cc(N3CCCC3)c(NC(=O)c3ccccc3F)cc21` here?
The Potency was inconclusive: 20.6 µM [inhibitor, partial curve, poor fit].

With `Cc1cc(N2CCN(C)CC2)nc2ccc(NC(=S)N3CCOCC3)cc12` as the molecule, how does the Potency read?
The Potency was inconclusive: 1.16 µM [inhibitor, full curve, poor fit].

Which Potency does the source give for `COc1cccc(CNC(=O)C(=O)NCCC2CCCCN2S(=O)(=O)c2ccc(C)cc2)c1` (stereo not given) here?
The Potency was “inactive”.

Which Potency does the source give for `Cn1c(-c2cccc([N+](=O)[O-])c2)[n+](C)c2ccccc21` here?
The Potency was inconclusive: 0.146 µM [activator, partial curve, poor fit].

With `Cc1c(C(=O)Nc2ccc(F)cc2)cn2c(nc3ccccc32)c1C#N` as the molecule, how does the Potency read?
Its Potency is inconclusive: 29.1 µM [activator, single point].

Which Potency does the source give for `COc1ccc(N(CC(=O)Nc2ccc3c(c2)OCO3)S(=O)(=O)c2ccccc2)cc1OC` here?
The Potency was inconclusive: 13 µM [inhibitor, partial curve].

Which Potency does the source give for `CC(=O)Nc1sc(C)c(C)c1C(=O)OCCOc1ccccc1` here?
Its Potency is inconclusive: 9.2 µM [activator, partial curve].

For `CCOc1ccccc1N1CCN(CC(=O)Nc2ccnn2C2CCCC2)CC1`, which Potency is on record?
The Potency was inconclusive: 20.6 µM [inhibitor, single point].

Which Potency does the source give for `O=C(CC1OC(=O)c2ccccc21)Nc1ccc(Cl)c(S(=O)(=O)N2CCCCC2)c1` (stereo not given) here?
The Potency was inconclusive: 35.5 µM [inhibitor, single point].

For `O=C1CC(c2ccccc2)CC(O)=C1C=NC1CCCCC1` (stereo not given), which Potency is on record?
Its Potency is “inactive”.

With `C=CCn1nnnc1SCC(=O)Nc1cccc(OC)c1` as the molecule, how does the Potency read?
Its Potency is “inactive”.

With `Cc1ccc(NC(=O)CCOc2ccccc2)cc1` as the molecule, how does the Potency read?
The Potency was inconclusive: 10.3 µM [activator, partial curve].

Which Potency does the source give for `CCn1c(=O)cc(OCC(=O)NCc2cccnc2)c2ccccc21` here?
The Potency was inconclusive: 16.4 µM [activator, partial curve].

Which Potency does the source give for `COC(=O)c1ccc(NC(=O)CCS(=O)(=O)c2ccc(Br)s2)cc1` here?
Its Potency is inconclusive: 18.4 µM [inhibitor, partial curve].

Which Potency does the source give for `O=S1(=O)CCC(NS(=O)(=O)c2ccc3ccccc3c2)C1` (stereo not given) here?
Its Potency is “inactive”.

For `O=C(CSc1ccccc1)Nc1cc(S(=O)(=O)N2CCOCC2)ccc1N1CCOCC1`, which Potency is on record?
Its Potency is inconclusive: 25.9 µM [inhibitor, partial curve, poor fit].

For `O=C(c1ccc(F)cc1)c1cc2ccccc2o1`, which Potency is on record?
Its Potency is inconclusive: 20.6 µM [activator, partial curve].

With `COc1ccc(NC(=O)/C=C/c2ccc3c(c2)OCO3)cc1` as the molecule, how does the Potency read?
The Potency was inconclusive: 10.3 µM [activator, partial curve].

Which Potency does the source give for `Cc1ccccc1Nc1nc2ccccc2n1C(C)C` here?
Its Potency is “inactive”.

With `CC1C(=O)Nc2ccc(S(=O)(=O)N3CCN(c4cccc(C(F)(F)F)c4)CC3)cc2NC1=O` (stereo not given) as the molecule, how does the Potency read?
Its Potency is “inactive”.

Which Potency does the source give for `CCN1C[C@@H]2[C@@H]3C(=O)N(Cc4ccccc4)C(=O)[C@@H]3[C@](CC)(C1=O)N2C(=O)c1ccc(C(F)(F)F)cc1` here?
Its Potency is “inactive”.

Which Potency does the source give for `CCn1c(=O)cc(OCC(=O)Nc2cccc(C)n2)c2ccccc21` here?
The Potency was “inactive”.

Which Potency does the source give for `COCC1CCCN(C(=O)c2ccc3nc(Cc4cccc(Cl)c4)oc3c2)C1` (stereo not given) here?
Its Potency is inconclusive: 23.1 µM [activator, partial curve].

Which Potency does the source give for `Cn1c(=O)cc(SCC(=O)NCCCN2CCOCC2)c2ccc(Cl)cc21` here?
The Potency was inconclusive: 20.6 µM [activator, partial curve, poor fit].

Which Potency does the source give for `Cc1ccccc1CN(CC(=O)Nc1cccc([N+](=O)[O-])c1)S(=O)(=O)c1ccc(Cl)cc1` here?
The Potency was inconclusive: 29.1 µM [inhibitor, single point].
